This note sets out measurements from the supplement of paper PMC12819154, “High-throughput peptide-centric local stability assay extends protein–ligand identification to membrane proteins, tissues and bacteria” (Nature Structural & Molecular Biology, 2025).

Chains of the proteins cited; added tags and fusions are not shown. Lines headed by an entry give the natural chain unless they say otherwise; changes in a name come on top.
UniProt Q6PDY2: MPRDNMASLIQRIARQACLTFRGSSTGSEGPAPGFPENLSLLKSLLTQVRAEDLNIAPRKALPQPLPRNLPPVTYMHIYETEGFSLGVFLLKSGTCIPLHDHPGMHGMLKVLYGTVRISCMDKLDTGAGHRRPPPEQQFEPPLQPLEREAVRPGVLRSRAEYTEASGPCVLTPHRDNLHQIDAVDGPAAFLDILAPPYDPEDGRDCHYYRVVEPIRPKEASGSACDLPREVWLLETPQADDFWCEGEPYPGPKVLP
UniProt Q78JT3: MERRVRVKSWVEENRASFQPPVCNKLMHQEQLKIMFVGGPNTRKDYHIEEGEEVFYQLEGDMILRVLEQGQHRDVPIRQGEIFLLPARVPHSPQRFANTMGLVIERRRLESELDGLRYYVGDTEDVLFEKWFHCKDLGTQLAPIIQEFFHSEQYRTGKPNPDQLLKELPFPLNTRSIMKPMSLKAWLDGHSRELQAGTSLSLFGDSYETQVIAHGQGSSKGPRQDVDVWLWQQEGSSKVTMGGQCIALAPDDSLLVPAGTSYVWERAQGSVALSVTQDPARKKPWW
UniProt Q8BFS6, whole entry: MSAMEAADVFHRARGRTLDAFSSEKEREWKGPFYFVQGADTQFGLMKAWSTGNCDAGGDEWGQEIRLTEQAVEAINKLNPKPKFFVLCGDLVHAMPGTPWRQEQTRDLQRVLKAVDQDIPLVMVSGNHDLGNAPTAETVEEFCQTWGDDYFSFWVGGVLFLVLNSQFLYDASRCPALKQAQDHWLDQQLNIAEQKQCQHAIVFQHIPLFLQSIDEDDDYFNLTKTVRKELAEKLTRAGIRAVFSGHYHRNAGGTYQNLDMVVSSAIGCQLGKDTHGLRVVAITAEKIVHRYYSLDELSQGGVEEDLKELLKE
UniProt Q78ZA7: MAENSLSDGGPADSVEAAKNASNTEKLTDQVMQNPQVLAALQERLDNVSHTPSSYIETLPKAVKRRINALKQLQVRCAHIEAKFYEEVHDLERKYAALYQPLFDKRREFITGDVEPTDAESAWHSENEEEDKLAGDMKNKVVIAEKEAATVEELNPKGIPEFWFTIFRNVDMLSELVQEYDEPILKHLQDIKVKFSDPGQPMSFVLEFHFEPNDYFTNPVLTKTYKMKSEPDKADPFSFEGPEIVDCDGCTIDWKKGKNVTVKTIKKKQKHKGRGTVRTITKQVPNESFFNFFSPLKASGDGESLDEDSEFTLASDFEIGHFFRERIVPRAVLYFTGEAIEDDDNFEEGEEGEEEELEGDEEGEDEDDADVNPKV
UniProt Q8BGD8: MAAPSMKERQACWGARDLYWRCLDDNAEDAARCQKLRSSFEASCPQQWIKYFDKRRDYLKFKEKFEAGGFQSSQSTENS
UniProt Q6ZPR6: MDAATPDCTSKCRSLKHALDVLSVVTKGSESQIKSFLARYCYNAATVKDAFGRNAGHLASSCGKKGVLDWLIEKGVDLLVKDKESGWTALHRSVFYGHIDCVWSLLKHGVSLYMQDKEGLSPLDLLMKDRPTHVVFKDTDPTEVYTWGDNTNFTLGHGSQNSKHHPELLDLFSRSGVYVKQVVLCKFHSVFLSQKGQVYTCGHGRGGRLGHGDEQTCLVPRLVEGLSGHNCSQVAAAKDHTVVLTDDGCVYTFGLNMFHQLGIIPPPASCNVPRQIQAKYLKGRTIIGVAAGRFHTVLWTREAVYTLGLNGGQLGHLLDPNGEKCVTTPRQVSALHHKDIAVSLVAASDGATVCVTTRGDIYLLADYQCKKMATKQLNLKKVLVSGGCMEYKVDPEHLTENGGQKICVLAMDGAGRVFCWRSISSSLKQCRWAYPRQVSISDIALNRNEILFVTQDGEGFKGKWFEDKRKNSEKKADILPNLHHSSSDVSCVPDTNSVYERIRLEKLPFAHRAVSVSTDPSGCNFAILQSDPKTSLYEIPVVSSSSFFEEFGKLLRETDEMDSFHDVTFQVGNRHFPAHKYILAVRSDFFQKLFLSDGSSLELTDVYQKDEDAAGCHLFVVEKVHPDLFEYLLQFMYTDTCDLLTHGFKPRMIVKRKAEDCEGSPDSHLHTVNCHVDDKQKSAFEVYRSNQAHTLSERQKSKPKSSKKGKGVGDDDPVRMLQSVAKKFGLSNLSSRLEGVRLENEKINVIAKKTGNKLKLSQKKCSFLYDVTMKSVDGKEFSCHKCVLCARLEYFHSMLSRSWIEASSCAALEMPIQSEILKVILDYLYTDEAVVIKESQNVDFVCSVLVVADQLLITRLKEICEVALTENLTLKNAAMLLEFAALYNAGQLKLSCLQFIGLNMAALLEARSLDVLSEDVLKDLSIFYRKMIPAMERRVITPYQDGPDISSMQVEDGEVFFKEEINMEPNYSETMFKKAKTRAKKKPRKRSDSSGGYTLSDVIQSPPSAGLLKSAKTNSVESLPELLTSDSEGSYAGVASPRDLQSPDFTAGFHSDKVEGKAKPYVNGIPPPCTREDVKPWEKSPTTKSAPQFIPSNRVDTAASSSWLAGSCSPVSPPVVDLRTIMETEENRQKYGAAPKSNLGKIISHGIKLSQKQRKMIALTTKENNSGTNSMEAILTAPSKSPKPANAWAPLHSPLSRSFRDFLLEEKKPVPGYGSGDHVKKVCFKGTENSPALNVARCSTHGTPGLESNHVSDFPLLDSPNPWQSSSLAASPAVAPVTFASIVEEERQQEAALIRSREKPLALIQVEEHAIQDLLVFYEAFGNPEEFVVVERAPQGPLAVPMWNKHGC
UniProt Q75N62: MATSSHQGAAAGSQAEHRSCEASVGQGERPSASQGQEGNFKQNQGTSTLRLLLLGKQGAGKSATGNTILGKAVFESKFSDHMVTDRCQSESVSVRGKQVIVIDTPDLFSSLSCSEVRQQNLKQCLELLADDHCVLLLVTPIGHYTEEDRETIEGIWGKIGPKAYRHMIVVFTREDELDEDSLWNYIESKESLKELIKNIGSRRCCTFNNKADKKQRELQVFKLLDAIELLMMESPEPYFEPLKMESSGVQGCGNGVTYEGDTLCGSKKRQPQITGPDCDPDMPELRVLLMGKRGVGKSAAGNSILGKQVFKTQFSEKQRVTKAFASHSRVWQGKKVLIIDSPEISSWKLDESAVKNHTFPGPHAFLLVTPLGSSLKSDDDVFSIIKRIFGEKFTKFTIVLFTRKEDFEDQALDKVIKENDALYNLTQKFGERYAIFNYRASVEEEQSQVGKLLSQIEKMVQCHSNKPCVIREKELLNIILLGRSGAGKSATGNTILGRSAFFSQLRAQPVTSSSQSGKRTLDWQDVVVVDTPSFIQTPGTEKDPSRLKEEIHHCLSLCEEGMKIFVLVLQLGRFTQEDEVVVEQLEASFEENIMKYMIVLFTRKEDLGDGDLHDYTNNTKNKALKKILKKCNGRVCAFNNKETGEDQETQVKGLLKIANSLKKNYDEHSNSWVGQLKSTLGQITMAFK
UniProt Q6PGD0: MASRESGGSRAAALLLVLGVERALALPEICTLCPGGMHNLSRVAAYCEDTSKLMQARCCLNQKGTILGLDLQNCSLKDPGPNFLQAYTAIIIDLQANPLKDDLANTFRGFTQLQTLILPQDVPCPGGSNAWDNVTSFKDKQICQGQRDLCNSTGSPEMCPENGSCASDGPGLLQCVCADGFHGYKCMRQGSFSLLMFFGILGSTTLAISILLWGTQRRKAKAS
UniProt Q80TV8: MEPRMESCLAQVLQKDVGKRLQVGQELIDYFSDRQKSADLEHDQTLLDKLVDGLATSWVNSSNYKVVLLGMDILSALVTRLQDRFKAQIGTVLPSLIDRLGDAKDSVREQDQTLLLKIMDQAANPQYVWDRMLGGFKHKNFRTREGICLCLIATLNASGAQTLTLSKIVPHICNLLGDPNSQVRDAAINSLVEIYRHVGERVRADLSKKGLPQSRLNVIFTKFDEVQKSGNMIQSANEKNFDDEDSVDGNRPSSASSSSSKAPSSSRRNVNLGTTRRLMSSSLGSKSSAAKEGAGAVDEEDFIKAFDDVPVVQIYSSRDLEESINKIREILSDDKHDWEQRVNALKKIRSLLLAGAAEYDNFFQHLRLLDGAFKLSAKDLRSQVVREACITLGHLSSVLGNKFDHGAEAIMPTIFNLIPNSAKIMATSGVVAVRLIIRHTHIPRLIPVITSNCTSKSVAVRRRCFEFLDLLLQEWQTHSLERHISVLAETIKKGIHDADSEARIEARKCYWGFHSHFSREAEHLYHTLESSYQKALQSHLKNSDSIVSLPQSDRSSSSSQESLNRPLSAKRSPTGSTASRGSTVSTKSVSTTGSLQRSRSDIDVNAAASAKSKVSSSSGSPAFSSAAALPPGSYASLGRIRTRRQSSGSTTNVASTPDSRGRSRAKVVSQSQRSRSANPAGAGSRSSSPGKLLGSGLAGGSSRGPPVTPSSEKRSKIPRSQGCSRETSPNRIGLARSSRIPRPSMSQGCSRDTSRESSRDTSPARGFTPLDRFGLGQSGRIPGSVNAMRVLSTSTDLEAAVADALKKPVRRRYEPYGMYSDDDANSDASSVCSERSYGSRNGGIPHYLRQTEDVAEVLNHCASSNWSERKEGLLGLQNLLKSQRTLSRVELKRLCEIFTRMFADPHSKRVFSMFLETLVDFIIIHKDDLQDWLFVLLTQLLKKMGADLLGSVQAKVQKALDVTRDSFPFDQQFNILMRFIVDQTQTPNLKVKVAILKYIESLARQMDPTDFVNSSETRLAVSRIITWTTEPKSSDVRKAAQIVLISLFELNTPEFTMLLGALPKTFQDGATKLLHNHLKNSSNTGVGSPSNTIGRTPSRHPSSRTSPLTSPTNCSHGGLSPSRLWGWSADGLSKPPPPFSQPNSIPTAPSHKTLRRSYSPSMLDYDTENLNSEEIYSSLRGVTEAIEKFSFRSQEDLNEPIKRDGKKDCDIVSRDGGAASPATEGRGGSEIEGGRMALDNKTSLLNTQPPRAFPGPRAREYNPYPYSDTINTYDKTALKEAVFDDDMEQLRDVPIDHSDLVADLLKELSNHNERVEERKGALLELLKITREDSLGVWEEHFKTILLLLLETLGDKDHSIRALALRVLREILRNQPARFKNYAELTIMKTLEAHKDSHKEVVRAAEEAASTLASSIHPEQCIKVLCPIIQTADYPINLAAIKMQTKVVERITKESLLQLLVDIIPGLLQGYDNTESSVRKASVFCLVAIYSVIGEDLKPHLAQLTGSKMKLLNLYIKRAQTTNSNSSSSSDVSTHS
UniProt Q78RX3: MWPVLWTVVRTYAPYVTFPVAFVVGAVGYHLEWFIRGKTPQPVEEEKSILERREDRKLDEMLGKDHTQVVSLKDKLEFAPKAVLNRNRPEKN
UniProt Q6P1B1: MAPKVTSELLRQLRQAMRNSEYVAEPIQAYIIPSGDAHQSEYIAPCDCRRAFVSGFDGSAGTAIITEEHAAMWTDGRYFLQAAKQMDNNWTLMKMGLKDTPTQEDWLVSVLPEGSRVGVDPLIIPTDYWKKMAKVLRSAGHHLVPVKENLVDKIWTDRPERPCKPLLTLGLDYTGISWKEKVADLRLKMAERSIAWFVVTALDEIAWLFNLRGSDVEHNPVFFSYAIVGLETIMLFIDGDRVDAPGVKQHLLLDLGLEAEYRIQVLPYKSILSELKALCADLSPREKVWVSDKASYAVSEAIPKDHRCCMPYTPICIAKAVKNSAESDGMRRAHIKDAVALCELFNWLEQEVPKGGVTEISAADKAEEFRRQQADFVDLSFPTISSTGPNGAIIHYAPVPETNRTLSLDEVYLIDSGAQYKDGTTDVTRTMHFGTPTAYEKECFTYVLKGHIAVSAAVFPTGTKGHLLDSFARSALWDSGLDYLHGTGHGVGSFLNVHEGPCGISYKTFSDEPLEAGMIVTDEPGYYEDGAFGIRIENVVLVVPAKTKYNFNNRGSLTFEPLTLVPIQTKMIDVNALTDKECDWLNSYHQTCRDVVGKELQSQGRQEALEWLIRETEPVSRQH
UniProt Q6Y685: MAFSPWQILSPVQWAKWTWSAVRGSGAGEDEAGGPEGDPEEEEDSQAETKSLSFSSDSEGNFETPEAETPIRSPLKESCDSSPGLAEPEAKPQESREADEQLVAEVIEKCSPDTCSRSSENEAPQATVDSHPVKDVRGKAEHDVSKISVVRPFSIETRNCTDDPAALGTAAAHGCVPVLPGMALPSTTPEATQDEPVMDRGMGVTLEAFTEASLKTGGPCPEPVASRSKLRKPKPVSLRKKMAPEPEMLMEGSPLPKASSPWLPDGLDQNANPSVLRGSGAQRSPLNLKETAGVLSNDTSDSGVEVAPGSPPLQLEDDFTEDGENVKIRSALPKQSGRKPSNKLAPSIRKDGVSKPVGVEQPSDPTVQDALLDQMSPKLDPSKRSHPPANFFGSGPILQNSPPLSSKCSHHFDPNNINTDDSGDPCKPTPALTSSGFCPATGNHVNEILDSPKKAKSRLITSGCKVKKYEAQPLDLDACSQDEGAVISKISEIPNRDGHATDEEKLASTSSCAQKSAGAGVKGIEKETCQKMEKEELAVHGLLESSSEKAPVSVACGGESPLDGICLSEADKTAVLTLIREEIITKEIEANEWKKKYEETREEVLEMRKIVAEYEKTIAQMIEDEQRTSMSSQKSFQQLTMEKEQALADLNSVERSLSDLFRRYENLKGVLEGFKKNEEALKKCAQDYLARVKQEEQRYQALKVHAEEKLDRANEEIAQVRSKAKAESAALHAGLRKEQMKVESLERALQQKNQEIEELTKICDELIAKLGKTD

Some of the results follow. Small differences around the control level are noise.

Compound in this assay: CN[C@@H]1C[C@H]2O[C@@](C)([C@@H]1OC)n1c3ccccc3c3c4c(c5c6ccccc6n2c5c31)C(=O)NC4 [staurosporine]
The assay is described as follows: log2 fold change of pooled soluble protein (PISA), ligand vs vehicle (log2 ratio); higher = more thermally stabilized. To be noted: ligand concentration: 20 uM; assay format: PISA pool 52.9/55.5/58.6 C.
In the case of UniProt Q6PDY2, the “log2 fold change of pooled soluble protein” value (from here on “log2 fold change”) was -0.0374.

For UniProt Q6NXJ0, the “log2 fold change” value came out at 0.162.

For UniProt Q6PDQ2, the “log2 fold change” value is -0.0109.

With UniProt Q7TSC1, the “log2 fold change” value is -0.0567.

As for UniProt Q78JT3, the “log2 fold change” value is -0.0114.

Regarding UniProt Q6X893, the “log2 fold change” value is 0.0131.

Consider UniProt Q8BFS6, for which the “log2 fold change” value was 0.0462.

As for UniProt Q80YA7, the “log2 fold change” value was -0.102.

With UniProt Q78ZA7, the “log2 fold change” value was -0.00855.

As for UniProt Q8BGD8, the “log2 fold change” value is 0.0281.

Turning to UniProt Q80XK6, the “log2 fold change” value was -0.142.

For the target UniProt Q6ZPR6, the “log2 fold change” value is 0.0952.

Consider UniProt Q6PAJ1, for which the “log2 fold change” value was -0.0936.

For the target UniProt Q80V03, the “log2 fold change” value amounted to 0.0999.

On to UniProt Q75N62, for which the “log2 fold change” value stood at 0.0576.

Consider UniProt Q6PHU5, for which the “log2 fold change” value was 0.266.

In the case of UniProt Q6ZQI3, the “log2 fold change” value stood at 0.0411.

UniProt Q6PGD0: the “log2 fold change” value was 0.104.

As for UniProt Q6P542, the “log2 fold change” value was -0.0917.

Regarding UniProt Q8BFY6, the “log2 fold change” value is -0.141.

For the target UniProt Q6PE01, the “log2 fold change” value came to 0.129.

In the case of UniProt Q7TNV0, the “log2 fold change” value was -0.0163.

On to UniProt Q80TV8, for which the “log2 fold change” value was -0.0102.

For UniProt Q80SU7, the “log2 fold change” value was 0.0122.

For the target UniProt Q78RX3, the “log2 fold change” value was -0.179.

Consider UniProt Q6PIP5, for which the “log2 fold change” value turned out to be 0.108.

Consider UniProt Q6ZPY7, for which the “log2 fold change” value was 0.129.

UniProt Q6P1B1: the “log2 fold change” value was -0.0811.

As for UniProt Q80TM6, the “log2 fold change” value worked out at 0.459.

As to UniProt Q7TQ95, the “log2 fold change” value was -0.185.

In the case of UniProt Q6P6I6, the “log2 fold change” value was 0.179.

Regarding UniProt Q8BG07, the “log2 fold change” value is -0.0887.

As for UniProt Q6PCP5, the “log2 fold change” value stood at 0.152.

As to UniProt Q6Y685, the “log2 fold change” value came out at 0.0405.

UniProt Q80WJ7: the “log2 fold change” value was 0.0158.

For the target UniProt Q71RI9, the “log2 fold change” value came out at 0.0449.
